Measured values as given in patent EP0226973A2, “4-Bis(2'-hydroxyethyl)amino-1-(3'-hydroxypropyl)amino-2-nitro-benzene, process for its preparation and means for dyeing hair” (Wella Aktiengesellschaft, priority 1985, dated 1987).

Assay: Hair dyeing test on human hair
Source text: Ihre Anwendung erfolgt in üblicher Weise durch Aufbringen einer für die Haarfärbung ausreichenden Menge des Mittels auf die Haare, mit denen es eine Zeitlang, vorzugsweise zwischen 5 und 30 Minuten, in Berührung bleibt. Anschlie-ßend werden die Haare mit Wasser, gegebenenfalls noch mit einer schwachen organischen Säure, gespült und sodann getrocknet. Als schwache organische Säure können beispielsweise Essigsäure, Zitronensäure, Weinsäure und ähnliche Verwendung finden.
Die Anwendung dieser Haarfärbemittel mit zusätzlicher Festigung erfolgt in bekannter und üblicher Weise durch Befeuchten des Haares mit dem Festiger, Festlegen (Einlegen) des Haares zur Frisur und anschließende Trocknung.
Das Haarfärbemittel wird auf weiße menschliche Haare aufgetragen und l0 Minuten lang einwirken gelassen.
Weiße menschliche Haare werden mit der festigenden Färbelösung zur Frisur eingelegt und getrocknet.
Das Haarfärbemittel wird auf graue menschliche Haare aufgetragen und und 20 Minuten lang einwirken gelassen.
50 g des vorstehenden Haarfärbemittels werden auf graue menschliche Haare aufgetragen und nach einer Einwirkungszeit von 20 Minuten mit Wasser ausgespült.

Compound | Ausspülen beim Waschen der Haare | Farbechtheit | Intensität der Färbung der Haare (compared with Farbstoff (IV)) | Farbtöne bei Färbungen (äquimolare Konzentrationen, compared with Farbstoff (IV))
O=[N+]([O-])c1cc(N(CCO)CCO)ccc1NCCO [Farbstoff (IV), 4-Bis(2′-hydroxyethyl)amino-l-(2′-hydroxyethyl)amino-2-nitro-benzols] | sehr schnell wieder ausgespült | nicht zufriedenstellend |  | 
O=[N+]([O-])c1cc(N(CCO)CCO)ccc1NCCCO [Farbstoff (I), 4-Bis(2′-hydroxyethyl)amino-l-(3′-hydroxypropyl)amino-2-nitro-benzol] |  |  | viel intensiver | deutlich intensivere Farbtöne
